# Results published in patent US4223017A, “Biologically active amides” (Burroughs Wellcome Co., priority 1975, dated 1980).
# Not every detail of the peptide structures is certain; ends, links or a residue may be inferred. Where no end group is shown, it is not given here.
# Tested on: mice of the NZO strain (genetically obese, hyperglycaemic and hyperinsulinaemic)
# Experiment: APP intraperitoneally 3 times a day for 25 days to NZO mice; blood glucose and serum insulin levels
# Type: in vivo
# Details: beef equivalent, APP 1 μg i.p. 3 times a day, male NZO mice, mean
substance,measurement,setting,value
"GPSQPTYPGDDAPVEDLIRFYDNLQQYLNVVTRHRY-NH2 [APP, avian pancreatic polypeptide]",Serum Insulin,day 10,99 μU/ml
same,Serum Insulin,day 20,47 μU/ml
